Values quoted from earlier work in patent US8178709B2, “Iron preparation suitable for pharmaceutical formulation and process for the preparation thereof” (BioLink Life Sciences, Inc., priority 2009, dated 2012).

Conditions: stability constant for ferric iron and the ligand; cited from earlier work

Row | SMILES | log Kstab
1 | O=C(O)CC(O)(CC(=O)O)C(=O)O [citrate] | 12
2 | O=P(O)(O)OP(=O)(O)O [pyrophosphate] | 22.2
